Measured values from article PMC5509727.
No constants are given. Whether binding was seen depends on the method and setting. In cells and extracts the contact can be indirect. Some entries that bind do so weakly or less than the wild type. Where a sequence is shown, tags or fusion partners need not be part of it.

T1: pEGFP-DGKδ expressed in NIH3T3 cells (human) (UniProt Q16760)
T1 sequence: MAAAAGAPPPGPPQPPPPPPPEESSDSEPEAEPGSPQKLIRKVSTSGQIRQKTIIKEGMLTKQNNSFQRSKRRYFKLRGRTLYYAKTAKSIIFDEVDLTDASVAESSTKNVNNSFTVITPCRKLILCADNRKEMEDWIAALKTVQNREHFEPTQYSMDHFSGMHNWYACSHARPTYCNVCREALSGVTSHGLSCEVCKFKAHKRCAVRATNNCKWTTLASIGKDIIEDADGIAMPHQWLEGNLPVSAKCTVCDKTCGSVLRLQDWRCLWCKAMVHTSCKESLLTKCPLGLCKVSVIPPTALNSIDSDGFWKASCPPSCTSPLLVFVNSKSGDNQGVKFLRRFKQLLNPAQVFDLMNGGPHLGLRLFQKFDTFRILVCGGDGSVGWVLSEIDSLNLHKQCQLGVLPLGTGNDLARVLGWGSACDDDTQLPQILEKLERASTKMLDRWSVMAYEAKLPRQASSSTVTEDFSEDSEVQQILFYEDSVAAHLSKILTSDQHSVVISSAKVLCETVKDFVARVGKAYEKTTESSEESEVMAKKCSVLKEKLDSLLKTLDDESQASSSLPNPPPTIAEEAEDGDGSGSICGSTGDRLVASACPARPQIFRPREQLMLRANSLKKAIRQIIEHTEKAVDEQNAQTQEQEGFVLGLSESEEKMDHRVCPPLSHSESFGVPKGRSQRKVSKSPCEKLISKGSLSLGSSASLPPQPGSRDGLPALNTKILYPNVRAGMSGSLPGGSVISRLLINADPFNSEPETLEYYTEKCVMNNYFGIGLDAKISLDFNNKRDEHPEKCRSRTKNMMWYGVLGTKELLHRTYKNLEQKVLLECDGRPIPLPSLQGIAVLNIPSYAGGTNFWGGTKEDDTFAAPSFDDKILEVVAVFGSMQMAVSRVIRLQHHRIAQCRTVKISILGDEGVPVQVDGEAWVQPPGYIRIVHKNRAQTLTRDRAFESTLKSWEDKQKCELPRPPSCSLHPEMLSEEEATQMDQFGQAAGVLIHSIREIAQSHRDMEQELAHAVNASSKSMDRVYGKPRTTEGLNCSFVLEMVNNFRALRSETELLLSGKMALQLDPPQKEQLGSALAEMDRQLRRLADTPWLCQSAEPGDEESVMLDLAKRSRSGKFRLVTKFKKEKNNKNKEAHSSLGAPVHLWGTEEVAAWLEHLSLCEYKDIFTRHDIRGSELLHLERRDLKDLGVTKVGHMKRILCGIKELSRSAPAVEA

T2: FLAG-IFT88 (pCMV-IFT88-3XFLAG) (UniProt Q61371)
T2 sequence: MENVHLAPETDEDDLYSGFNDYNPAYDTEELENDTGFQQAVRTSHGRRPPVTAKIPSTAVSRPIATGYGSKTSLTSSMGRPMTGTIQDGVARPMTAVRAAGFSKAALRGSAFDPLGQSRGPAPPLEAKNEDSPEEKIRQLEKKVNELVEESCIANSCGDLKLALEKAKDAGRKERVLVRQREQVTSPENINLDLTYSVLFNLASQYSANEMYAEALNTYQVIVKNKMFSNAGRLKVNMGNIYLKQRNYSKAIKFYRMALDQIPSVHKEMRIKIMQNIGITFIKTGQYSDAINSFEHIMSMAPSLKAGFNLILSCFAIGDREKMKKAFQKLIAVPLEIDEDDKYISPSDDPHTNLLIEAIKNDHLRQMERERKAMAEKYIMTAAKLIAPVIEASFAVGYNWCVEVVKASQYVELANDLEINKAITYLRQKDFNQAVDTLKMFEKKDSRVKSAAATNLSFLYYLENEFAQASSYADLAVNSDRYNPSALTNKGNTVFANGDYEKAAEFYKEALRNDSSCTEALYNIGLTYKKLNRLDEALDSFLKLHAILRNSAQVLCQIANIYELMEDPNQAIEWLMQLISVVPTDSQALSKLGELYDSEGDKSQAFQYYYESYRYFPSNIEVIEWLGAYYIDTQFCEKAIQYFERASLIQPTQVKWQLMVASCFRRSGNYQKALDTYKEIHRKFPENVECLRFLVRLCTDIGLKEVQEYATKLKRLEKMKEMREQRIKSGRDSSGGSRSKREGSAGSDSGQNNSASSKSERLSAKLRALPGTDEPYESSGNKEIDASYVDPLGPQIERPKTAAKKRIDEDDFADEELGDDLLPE


Legend:
[1] = target: T1, pEGFP-DGKδ expressed in NIH3T3 cells (human); test: proximity ligation; Duolink in situ PLA in NIH3T3 cells transfected with FLAG-IFT88 and pEGFP-DGKδ
[2] = target: T2, FLAG-IFT88 (pCMV-IFT88-3XFLAG); test: co-IP; 293T cells co-transfected; lysates in RIPA precipitated with anti-FLAG M2 affinity gel, Western blot with anti-GFP or anti-Sec31A

binding [1] | binding [2] | Binder
binds |  | FLAG-IFT88 expressed in NIH3T3 cells (protein, UniProt Q61371 1-824) MENVHLAPETDEDDLYSGFNDYNPAYDTEELENDTGFQQAVRTSHGRRPPVTAKIPSTAVSRPIATGYGSKTSLTSSMGRPMTGTIQDGVARPMTAVRAAGFSKAALRGSAFDPLGQSRGPAPPLEAKNEDSPEEKIRQLEKKVNELVEESCIANSCGDLKLALEKAKDAGRKERVLVRQREQVTSPENINLDLTYSVLFNLASQYSANEMYAEALNTYQVIVKNKMFSNAGRLKVNMGNIYLKQRNYSKAIKFYRMALDQIPSVHKEMRIKIMQNIGITFIKTGQYSDAINSFEHIMSMAPSLKAGFNLILSCFAIGDREKMKKAFQKLIAVPLEIDEDDKYISPSDDPHTNLLIEAIKNDHLRQMERERKAMAEKYIMTAAKLIAPVIEASFAVGYNWCVEVVKASQYVELANDLEINKAITYLRQKDFNQAVDTLKMFEKKDSRVKSAAATNLSFLYYLENEFAQASSYADLAVNSDRYNPSALTNKGNTVFANGDYEKAAEFYKEALRNDSSCTEALYNIGLTYKKLNRLDEALDSFLKLHAILRNSAQVLCQIANIYELMEDPNQAIEWLMQLISVVPTDSQALSKLGELYDSEGDKSQAFQYYYESYRYFPSNIEVIEWLGAYYIDTQFCEKAIQYFERASLIQPTQVKWQLMVASCFRRSGNYQKALDTYKEIHRKFPENVECLRFLVRLCTDIGLKEVQEYATKLKRLEKMKEMREQRIKSGRDSSGGSRSKREGSAGSDSGQNNSASSKSERLSAKLRALPGTDEPYESSGNKEIDASYVDPLGPQIERPKTAAKKRIDEDDFADEELGDDLLPE
 | binds | CFP-Sec31A (protein, UniProt O94979 1-1220) MKLKEVDRTAMQAWSPAQNHPIYLATGTSAQQLDATFSTNASLEIFELDLSDPSLDMKSCATFSSSHRYHKLIWGPYKMDSKGDVSGVLIAGGENGNIILYDPSKIIAGDKEVVIAQNDKHTGPVRALDVNIFQTNLVASGANESEIYIWDLNNFATPMTPGAKTQPPEDISCIAWNRQVQHILASASPSGRATVWDLRKNEPIIKVSDHSNRMHCSGLAWHPDVATQMVLASEDDRLPVIQMWDLRFASSPLRVLENHARGILAIAWSMADPELLLSCGKDAKILCSNPNTGEVLYELPTNTQWCFDIQWCPRNPAVLSAASFDGRISVYSIMGGSTDGLRQKQVDKLSSSFGNLDPFGTGQPLPPLQIPQQTAQHSIVLPLKKPPKWIRRPVGASFSFGGKLVTFENVRMPSHQGAEQQQQQHHVFISQVVTEKEFLSRSDQLQQAVQSQGFINYCQKKIDASQTEFEKNVWSFLKVNFEDDSRGKYLELLGYRKEDLGKKIALALNKVDGANVALKDSDQVAQSDGEESPAAEEQLLGEHIKEEKEESEFLPSSGGTFNISVSGDIDGLITQALLTGNFESAVDLCLHDNRMADAIILAIAGGQELLARTQKKYFAKSQSKITRLITAVVMKNWKEIVESCDLKNWREALAAVLTYAKPDEFSALCDLLGTRLENEGDSLLQTQACLCYICAGNVEKLVACWTKAQDGSHPLSLQDLIEKVVILRKAVQLTQAMDTSTVGVLLAAKMSQYANLLAAQGSIAAALAFLPDNTNQPNIMQLRDRLCRAQGEPVAGHESPKIPYEKQQLPKGRPGPVAGHHQMPRVQTQQYYPHGENPPPPGFIMHGNVNPNAAGQLPTSPGHMHTQVPPYPQPQPYQPAQPYPFGTGGSAMYRPQQPVAPPTSNAYPNTPYISSASSYTGQSQLYAAQHQASSPTSSPATSFPPPPSSGASFQHGGPGAPPSSSAYALPPGTTGTLPAASELPASQRTGPQNGWNDPPALNRVPKKKKMPENFMPPVPITSPIMNPLGDPQSQMLQQQPSAPVPLSSQSSFPQPHLPGGQPFHGVQQPLGQTGMPPSFSKPNIEGAPGAPIGNTFQHVQSLPTKKITKKPIPDEHLILKTTFEDLIQRCLSSATDPQTKRKLDDASKRLEFLYDKLREQTLSPTITSGLHNIARSIETRNYSEGLTMHTHIVSTSNFSETSAFMPVLKVVLTQANKLGV
